Measured values: paper PMC4370678
These are yes or no findings as the source states them, for the method shown. Some results given as binding are weak or reduced against the parent protein; the word gives no strength.

What was measured:
[1] = target: pSos-AIPL1(G262S) (human) (UniProt Q9NZN9); assay: two-hybrid; directed 1:1 CytoTrapXR two-hybrid in cdc25Hα yeast: pSos bait and pMyr prey co-transformed, serial dilutions grown at 24°C and 37°C
pSos-AIPL1(H82Y) (human) = pSos-AIPL1(H82Y) (human) (UniProt Q9NZN9); assay: as above
[2] = target: pSos-AIPL1 (full-length wild type human AIPL1) (human) (UniProt Q9NZN9); assay: as above
[3] = target: pSos-AIPL1(R302L) (human) (UniProt Q9NZN9); assay: as above
[4] = target: pSos-AIPL1 (full-length wild type human AIPL1) (human) (UniProt Q9NZN9); assay: two-hybrid; CytoTrapXR screen of a bovine retinal cDNA library in pMyr (about 1 X 10^6 colonies) with pSos-AIPL1 as bait in S. cerevisiae cdc25Hα; growth at 37°C on gal(-L-U)

Measured: binding

B1: pMyr-EB1(109–268) (domain or fragment, UniProt Q3ZBD9 109-268)
chain: QWFKKFFDANYDGKEYDPVAARQGQETAMAPSLVAPALNKPKKPLSSSSAAPQRPITTHRTTATPKAGPGVVRKNPGVGNGDDEAAELMQQVNVLKLTVEDLEKERDFYFGKLRNIELICQENEGENNPVLQRIVDILYATDEGFVIPDEGGPQEEQEEY
binds: all assays above
